Data on six molecules can be found in patent publication US20250283871A1, “COMPOSITIONS AND METHODS FOR MODULATING THE INTERACTION BETWEEN SS18-SSX FUSION ONCOPROTEIN AND NUCLEOSOMES” (Dana-Farber Cancer Institute, Inc., priority 2020, published 2025).

In the data set the test system is BAF complex subunits and histone proteins. The experiment in a line: Mass spectrometry proteomics of purified HA-SS18 WT and HA-SS18-SSX1 complexes (Tables 5A-5E). Also noted: species or system human.
Where [1] appears, read: HA-SS18SSX1_CHR_peptides: protein identified in the HA-SS18-SSX1 purification from solubilized chromatin (CHR), HEK-293T.
The mark [2] stands for this setting: HA-SS18WT_CHR_peptides: HA-SS18 WT purification from nuclease-treated solubilized chromatin (CHR), HEK-293T, label = protein identified.
[3] abbreviates: HA-SS18WT_CHR_peptides: protein identified in HA-SS18 WT BAF complex purification from nuclease-treated solubilized chromatin (CHR), HEK-293T.
The mark [4] stands for this setting: HA-SS18WT_NE_peptides: proteins co-purified with HA-SS18 WT from nuclear extract (NE), HEK-293T.
Setting [5] is: HA-SS18SSX1 purification, NE (soluble nuclear extract) fraction, HEK-293T, peptides per identified protein.
The mark [6] stands for this setting: HA-SS18WT_NE_peptides: HA-SS18 WT complexes purified from nuclear extract (NE), HEK-293T, label = protein identified (Gene Symbol).
Setting [7] is: HA-SS18SSX1_NE_peptides: protein co-purified with HA-SS18-SSX1 BAF complexes from soluble nuclear extract (NE), HEK-293T cells.

B1: CENPV (protein, UniProt Q7Z7K6 1-275, looked up)
Centromere protein V: MRRSRSSAAAKLRGQKRSGASGASAAPAASAAAALAPSATRTRRSASQAGSKSQAVEKPPSEKPRLRRSSPRAQEEGPGEPPPPELALLPPPPPPPPTPATPTSSASNLDLGEQRERWETFQKRQKLTSEGAAKLLLDTFEYQGLVKHTGGCHCGAVRFEVWASADLHIFDCNCSICKKKQNRHFIVPASRFKLLKGAEHITTYTFNTHKAQHTFCKRCGVQSFYTPRSNPGGFGIAPHCLDEGTVRSMVTEEFNGSDWEKAMKEHKTIKNMSKE
For the molecule B1, under setting [1], the “Total (total peptides)” value turned out to be 10 and the “Unique (unique peptides)” value was 8. In addition, for the setting “HA-SS18SSX1_CHR_peptides, total peptides of the identified protein”, the Total was 1. Further, the Unique (HA-SS18SSX1_CHR_peptides, unique peptides of the identified protein) came to 1. In addition, under setting [2], the “Total (peptides)” value is 6 and the “Unique (peptides)” value is reported as 5. Besides, under setting [3], the “Total (total peptides)” value was 2 and the “Unique (unique peptides)” value amounted to 1. Under setting [4], the “Total (peptides)” value was 1 and the “Unique (peptides)” value was determined as 1.

B2: CEBPZ (protein, UniProt Q03701 1-1054, looked up)
CCAAT/enhancer-binding …: MAAVKEPLEFHAKRPWRPEEAVEDPDEEDEDNTSEAENGFSLEEVLRLGGTKQDYLMLATLDENEEVIDGGKKGAIDDLQQGELEAFIQNLNLAKYTKASLVEEDEPAEKENSSKKEVKIPKINNKNTAESQRTSVNKVKNKNRPEPHSDENGSTTPKVKKDKQNIFEFFERQTLLLRPGGKWYDLEYSNEYSLKPQPQDVVSKYKTLAQKLYQHEINLFKSKTNSQKGASSTWMKAIVSSGTLGDRMAAMILLIQDDAVHTLQFVETLVNLVKKKGSKQQCLMALDTFKELLITDLLPDNRKLRIFSQRPFDKLEQLSSGNKDSRDRRLILWYFEHQLKHLVAEFVQVLETLSHDTLVTTKTRALTVAHELLCNKPEEEKALLVQVVNKLGDPQNRIATKASHLLETLLCKHPNMKGVVSGEVERLLFRSNISSKAQYYAICFLNQMALSHEESELANKLITVYFCFFRTCVKKKDVESKMLSALLTGVNRAYPYSQTGDDKVREQIDTLFKVLHIVNFNTSVQALMLLFQVMNSQQTISDRYYTALYRKMLDPGLMTCSKQAMFLNLVYKSLKADIVLRRVKAFVKRLLQVTCQQMPPFICGALYLVSEILKAKPGLRSQLDDHPESDDEENFIDANDDEDMEKFTDADKETEIVKKLETEETVPETDVETKKPEVASWVHFDNLKGGKQLNKYDPFSRNPLFCGAENTSLWELKKLSVHFHPSVALFAKTILQGNYIQYSGDPLQDFTLMRFLDRFVYRNPKPHKGKENTDSVVMQPKRKHFIKDIRHLPVNSKEFLAKEESQIPVDEVFFHRYYKKVAVKEKQKRDADEESIEDVDDEEFEELIDTFEDDNCFSSGKDDMDFAGNVKKRTKGAKDNTLDEDSEGSDDELGNLDDDEVSLGSMDDEEFAEVDEDGGTFMDVLDDESESVPELEVHSKVSTKKSKRKGTDDFDFAGSFQGPRKKKRNLNDSSLFVSAEEFGHLLDENMGSKFDNIGMNAMANKDNASLKQLRWEAERDDWLHNRDAKSIIKKKKHFKKKRIKTTQKTKKQRK
Consider B2, for which, under setting [1], the “Total (total peptides)” value is given as 9 and the “Unique (unique peptides)” value was 9. Besides, under setting [5], the “Total (total peptides)” value was 4 and the “Unique (unique peptides)” value is 4. For the same molecule, under setting [2], the “Total (peptides)” value was 5 and the “Unique (peptides)” value was 5. Under setting [6], the “Total (peptides)” value came to 5 and the “Unique (peptides)” value is on record as 5.

B3: DDX17 (protein, UniProt Q92841 1-729, looked up)
Probable ATP-dependent RNA …: MPTGFVAPILCVLLPSPTREAATVASATGDSASERESAAPAAAPTAEAPPPSVVTRPEPQALPSPAIRAPLPDLYPFGTMRGGGFGDRDRDRDRGGFGARGGGGLPPKKFGNPGERLRKKKWDLSELPKFEKNFYVEHPEVARLTPYEVDELRRKKEITVRGGDVCPKPVFAFHHANFPQYVMDVLMDQHFTEPTPIQCQGFPLALSGRDMVGIAQTGSGKTLAYLLPAIVHINHQPYLERGDGPICLVLAPTRELAQQVQQVADDYGKCSRLKSTCIYGGAPKGPQIRDLERGVEICIATPGRLIDFLESGKTNLRRCTYLVLDEADRMLDMGFEPQIRKIVDQIRPDRQTLMWSATWPKEVRQLAEDFLRDYTQINVGNLELSANHNILQIVDVCMESEKDHKLIQLMEEIMAEKENKTIIFVETKRRCDDLTRRMRRDGWPAMCIHGDKSQPERDWVLNEFRSGKAPILIATDVASRGLDVEDVKFVINYDYPNSSEDYVHRIGRTARSTNKGTAYTFFTPGNLKQARELIKVLEEANQAINPKLMQLVDHRGGGGGGGGRSRYRTTSSANNPNLMYQDECDRRLRGVKDGGRRDSASYRDRSETDRAGYANGSGYGSPNSAFGAQAGQYTYGQGTYGAAAYGTSSYTAQEYGAGTYGASSTTSTGRSSQSSSQQFSGIGRSGQQPQPLMSQQFAQPPGATNMIGYMGQTAYQYPPPPPPPPPSRK
Regarding B3, under setting [1], the “Total (total peptides)” value came out at 10 and the “Unique (unique peptides)” value is 9. Under setting [5], the “Total (total peptides)” value was 8 and the “Unique (unique peptides)” value was found to be 8. Further, under setting [2], the “Total (peptides)” value is 7 and the “Unique (peptides)” value worked out at 7. Under setting [6], the “Total (peptides)” value is reported as 7 and the “Unique (peptides)” value turned out to be 6.

B4: LEMD2 (protein, UniProt Q8NC56 2-503, looked up)
LEM domain-containing protein …: AGLSDLELRRELQALGFQPGPITDTTRDVYRNKLRRLRGEARLRDEERLREEARPRGEERLREEARLREDAPLRARPAAASPRAEPWLSQPASGSAYATPGAYGDIRPSAASWVGSRGLAYPARPAQLRRRASVRGSSEEDEDARTPDRATQGPGLAARRWWAASPAPARLPSSLLGPDPRPGLRATRAGPAGAARARPEVGRRLERWLSRLLLWASLGLLLVFLGILWVKMGKPSAPQEAEDNMKLLPVDCERKTDEFCQAKQKAALLELLHELYNFLAIQAGNFECGNPENLKSKCIPVMEAQEYIANVTSSSSAKFEAALTWILSSNKDVGIWLKGEDQSELVTTVDKVVCLESAHPRMGVGCRLSRALLTAVTNVLIFFWCLAFLWGLLILLKYRWRKLEEEEQAMYEMVKKIIDVVQDHYVDWEQDMERYPYVGILHVRDSLIPPQSRRRMKRVWDRAVEFLASNESRIQTESHRVAGEDMLVWRWTKPSSFSDSER
Regarding B4, under setting [1], the “Total (total peptides)” value is listed as 10 and the “Unique (unique peptides)” value was 8. In addition, under setting [7], the “Total (peptides)” value worked out at 2 and the “Unique (peptides)” value was 2. Under setting [3], the “Total (total peptides)” value was 2 and the “Unique (unique peptides)” value turned out to be 2.

B5: NUP107 (protein, UniProt P57740 1-925, looked up)
Nuclear pore complex protein …: MDRSGFGEISSPVIREAEVTRTARKQSAQKRVLLQASQDENFGNTTPRNQVIPRTPSSFRQPFTPTSRSLLRQPDISCILGTGGKSPRLTQSSGFFGNLSMVTNLDDSNWAAAFSSQRSGLFTNTEPHSITEDVTISAVMLREDDPGEAASMSMFSDFLQSFLKHSSSTVFDLVEEYENICGSQVNILSKIVSRATPGLQKFSKTASMLWLLQQEMVTWRLLASLYRDRIQSALEEESVFAVTAVNASEKTVVEALFQRDSLVRQSQLVVDWLESIAKDEIGEFSDNIEFYAKSVYWENTLHTLKQRQLTSYVGSVRPLVTELDPDAPIRQKMPLDDLDREDEVRLLKYLFTLIRAGMTEEAQRLCKRCGQAWRAATLEGWKLYHDPNVNGGTELEPVEGNPYRRIWKISCWRMAEDELFNRYERAIYAALSGNLKQLLPVCDTWEDTVWAYFRVMVDSLVEQEIQTSVATLDETEELPREYLGANWTLEKVFEELQATDKKRVLEENQEHYHIVQKFLILGDIDGLMDEFSKWLSKSRNNLPGHLLRFMTHLILFFRTLGLQTKEEVSIEVLKTYIQLLIREKHTNLIAFYTCHLPQDLAVAQYALFLESVTEFEQRHHCLELAKEADLDVATITKTVVENIRKKDNGEFSHHDLAPALDTGTTEEDRLKIDVIDWLVFDPAQRAEALKQGNAIMRKFLASKKHEAAKEVFVKIPQDSIAEIYNQCEEQGMESPLPAEDDNAIREHLCIRAYLEAHETFNEWFKHMNSVPQKPALIPQPTFTEKVAHEHKEKKYEMDFGIWKGHLDALTADVKEKMYNVLLFVDGGWMVDVREDAKEDHERTHQMVLLRKLCLPMLCFLLHTILHSTGQYQECLQLADMVSSERHKLYLVFSKEELRKLLQKLRESSLMLLDQGLDPLGYEIQL
With B5, under setting [1], the “Total (total peptides)” value is given as 9 and the “Unique (unique peptides)” value was 9. Also, under setting [2], the “Total (peptides)” value was 5 and the “Unique (peptides)” value is on record as 5. Under setting [4], the “Total (peptides)” value was 1 and the “Unique (peptides)” value is listed as 1.

B6: MTA1 (protein, UniProt Q13330 1-715, looked up)
Metastasis-associated protein …: MAANMYRVGDYVYFENSSSNPYLIRRIEELNKTANGNVEAKVVCFYRRRDISSTLIALADKHATLSVCYKAGPGADNGEEGEIEEEMENPEMVDLPEKLKHQLRHRELFLSRQLESLPATHIRGKCSVTLLNETESLKSYLEREDFFFYSLVYDPQQKTLLADKGEIRVGNRYQADITDLLKEGEEDGRDQSRLETQVWEAHNPLTDKQIDQFLVVARSVGTFARALDCSSSVRQPSLHMSAAAASRDITLFHAMDTLHKNIYDISKAISALVPQGGPVLCRDEMEEWSASEANLFEEALEKYGKDFTDIQQDFLPWKSLTSIIEYYYMWKTTDRYVQQKRLKAAEAESKLKQVYIPNYNKPNPNQISVNNVKAGVVNGTGAPGQSPGAGRACESCYTTQSYQWYSWGPPNMQCRLCASCWTYWKKYGGLKMPTRLDGERPGPNRSNMSPHGLPARSSGSPKFAMKTRQAFYLHTTKLTRIARRLCREILRPWHAARHPYLPINSAAIKAECTARLPEASQSPLVLKQAVRKPLEAVLRYLETHPRPPKPDPVKSVSSVLSSLTPAKVAPVINNGSPTILGKRSYEQHNGVDGNMKKRLLMPSRGLANHGQARHMGPSRNLLLNGKSYPTKVRLIRGGSLPPVKRRRMNWIDAPDDVFYMATEETRKIRKLLSSSETKRAARRPYKPIALRQSQALPPRPPPPAPVNDEPIVIED
For B6, under setting [1], the “Total (total peptides)” value was 9 and the “Unique (unique peptides)” value is recorded as 9. Under setting [2], the “Total (peptides)” value is given as 3 and the “Unique (peptides)” value is 3.
